3 molecules from PMC6504953, “Cauliflower mosaic virus transactivator protein (TAV) can suppress nonsense-mediated decay by targeting VARICOSE, a scaffold protein of the decapping complex” (Scientific Reports, 2019) can be followed below.

Amino acid sequences for entries named in this document (tags omitted). A change or cut given only in a name is not applied to a line headed by its entry.
UniProt P03558: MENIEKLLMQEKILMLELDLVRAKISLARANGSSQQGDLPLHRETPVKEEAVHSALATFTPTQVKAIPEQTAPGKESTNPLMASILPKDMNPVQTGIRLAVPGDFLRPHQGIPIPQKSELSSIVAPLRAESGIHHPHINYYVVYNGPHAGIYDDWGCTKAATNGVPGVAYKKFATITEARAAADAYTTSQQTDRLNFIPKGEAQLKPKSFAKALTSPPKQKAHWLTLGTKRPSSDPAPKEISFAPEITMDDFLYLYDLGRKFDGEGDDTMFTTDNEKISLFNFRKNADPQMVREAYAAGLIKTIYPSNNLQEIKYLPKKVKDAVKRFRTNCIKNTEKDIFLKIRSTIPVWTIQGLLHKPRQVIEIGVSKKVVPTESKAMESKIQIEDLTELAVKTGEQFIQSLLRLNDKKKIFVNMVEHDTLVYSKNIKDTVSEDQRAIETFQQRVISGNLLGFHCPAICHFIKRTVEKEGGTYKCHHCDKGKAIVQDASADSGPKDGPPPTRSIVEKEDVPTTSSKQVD

Test in all cases: two-hybrid; Gal4 AD and BD fusions co-transformed in yeast strain AH109; selection on medium lacking Leu, Trp and Ade; equal OD600 units and 1/10 and 1/100 dilutions spotted, 2 days; self-interaction of TAV: two fusions of entire TAV
Assay [1] deals with Cauliflower mosaic virus translation transactivator/viroplasmin (TAV), strain CM1841, fused to the Gal4 activation domain (Cauliflower mosaic virus (strain CM1841)) (UniProt P03558).
The target of assay [2] is VCS-C2 domain (aa 1181-1341) fused to the Gal4 binding domain (A. thaliana) (UniProt Q9LTT8).
Assay [3] concerns the target Cauliflower mosaic virus translation transactivator/viroplasmin (TAV), strain CM1841, fused to the Gal4 binding domain (Cauliflower mosaic virus (strain CM1841)) (UniProt P03558).
The target in assay [4] is Amino terminal portion of TAV (NTAV, residues 26-242) fused to the Gal4 binding domain (Cauliflower mosaic virus (strain CM1841)) (UniProt P03558).
Assay [5] deals with Cauliflower mosaic virus translation transactivator/viroplasmin (TAV), strain CM1841, fused to the Gal4 binding domain (Cauliflower mosaic virus (strain CM1841)) (UniProt P03558). The source holds these as a separate data set.
In assay [6] the target is Amino terminal portion of TAV (NTAV, residues 26-242) fused to the Gal4 binding domain (Cauliflower mosaic virus (strain CM1841)) (UniProt P03558). This is another data set of the same source.

Like-named read-outs stand apart in the source and are kept apart here. These are yes or no findings as the source states them, for the method shown. Some entries that bind do so weakly or less than the wild type. For part of these data: Tags and fused reporters may be left off the sequences shown.

“Cauliflower mosaic virus translation transactivator/viroplasmin (TAV), strain CM1841, fused to the Gal4 activation domain (from UniProt P03558 1-520)”: the binding entry in assay [1] and in assay [2] was “binds” throughout.
Take “VCS-C2 domain (aa 1181-1341) fused to the Gal4 activation domain (from UniProt Q9LTT8 1181-1341) (domain or fragment)”: the binding result in assay [3] and in assay [4] was “binds” in each case.

B1: VARICOSE (VCS), entire protein, fused to the Gal4 activation domain (natural protein, A. thaliana, UniProt Q9LTT8 1-1344, looked up)
chain: MASSPGNTNPHNTPPFDLGILFKPSSNPYPPPAASYPPPTGPFLHNQYDQQHYAPPGISAQPSPVTQQQQDVSSSSAATNLHPQRTLSYPTPPLNLQSPRSNHNPGTHILALLNNTNNGAPVANQEPSHQLPVVNHNEIARSFPGGSGPIRVPSCKLPKGRRLIGEHAVYDVDVRLQGEIQPQLEVTPITKYGSDPQLVVGRQIAVNKVYICYGLKGGNIRVLNINTALRSLFRGHSQRVTDMAFFAEDVDMLASVSLDGKVFVWKISEGSEGEDQPQITGKIVLALQILGEEDTKHPRVCWHCHKQEILVVSIGKHVLRIDTTKVGRGEVFSAEAPLQCPLDKLIDGVQIVGKHDGEVTDLSMCQWMTTRLVSSSVDGTIKIWQDRKAQPLVVLRPHDGHPVSSATFVTSPERPDHIILITGGPLNREMKIWVSAGEEGWLLPADAESWRCTQTLDLKSSTEPRAEEAFFNQVIALSEAGLLLLANAKRNALYAVHLDYGSSPVGTRMDYLSEFTVTMPILSFIGTNDPPEEPIVKVYCVQTLAIQQYTLDLCLCLPPPIENMGLEKSDSSVSREANLVEGMSEPSGLKPTDLPSVDSVPKPSIIVNRSESANKLSFPSAEATSQAIVPPNGEPKTSGLPSQTSGAGSAYATLPQLPLSPRLSSKLSGYHTPVEAIEPVIPHHELGGKTPSADYSVDRQMDAVGERNLDVSSVEEISRSKDSNVTPDDDVSGMRSPSAFFKHPTHLVTPSEILMGVSSAEASITTEDRRDRDANIQDVNNDPRDTEVEVKEISEARSTQNGEINDHDETENCTSENREKVFCSQVSNLSTEMARDCYPSTEGTFIPGESKAYGQPIKAGDESGVDSRGGPAKLLKGKKQKAKNSQGPGLSSTSSNVANLADSFNEQSQSLSHPMTDLLPQLLAMQETMNQVMASQKEMQRQLSNAATGPIGKESKRLEVALGRMIEKSSKSNADALWARIQEETVKNEKALRDHAQQIVNATTNFMSKELNAMFEKTIKKELAAIGPALARSVVPVIEKTVSSAITESFQRGIGDKAVNQLDKSVNIKLEATVARQIQAQFQTSGKQALQEGLRSSVESSVIPSFEKACKAMFDQIDSAFQKGIAEHTNAAQQRFDSGHSQLAHTLKESITSASSVAQALSRELAETQRNLLALAAAGANSGGSNSLVTQLSGGPLGALLEKVEAPMDPTTELSRLISERKYEESFTSALQRSDVSIVSWLCSQVDLRGLLAMNPLPLSQGVLLSLLQQLACDISKDTSRKLAWMTDVVAAINPSDQMIAVHARPIFEQVYQILHHHRNAPGSDVSAIRLIMHVINSMLMGCK
As to B1, the binding result in assay [5] is “no binding”; in assay [6] it was “binds”.
